What is called pIC50 is the negative decadic logarithm of the IC50, by convention in mol/L.

Sequences of proteins named here, by UniProt entry; tags and fusion partners are left off.
UniProt P42336, whole entry H1047R: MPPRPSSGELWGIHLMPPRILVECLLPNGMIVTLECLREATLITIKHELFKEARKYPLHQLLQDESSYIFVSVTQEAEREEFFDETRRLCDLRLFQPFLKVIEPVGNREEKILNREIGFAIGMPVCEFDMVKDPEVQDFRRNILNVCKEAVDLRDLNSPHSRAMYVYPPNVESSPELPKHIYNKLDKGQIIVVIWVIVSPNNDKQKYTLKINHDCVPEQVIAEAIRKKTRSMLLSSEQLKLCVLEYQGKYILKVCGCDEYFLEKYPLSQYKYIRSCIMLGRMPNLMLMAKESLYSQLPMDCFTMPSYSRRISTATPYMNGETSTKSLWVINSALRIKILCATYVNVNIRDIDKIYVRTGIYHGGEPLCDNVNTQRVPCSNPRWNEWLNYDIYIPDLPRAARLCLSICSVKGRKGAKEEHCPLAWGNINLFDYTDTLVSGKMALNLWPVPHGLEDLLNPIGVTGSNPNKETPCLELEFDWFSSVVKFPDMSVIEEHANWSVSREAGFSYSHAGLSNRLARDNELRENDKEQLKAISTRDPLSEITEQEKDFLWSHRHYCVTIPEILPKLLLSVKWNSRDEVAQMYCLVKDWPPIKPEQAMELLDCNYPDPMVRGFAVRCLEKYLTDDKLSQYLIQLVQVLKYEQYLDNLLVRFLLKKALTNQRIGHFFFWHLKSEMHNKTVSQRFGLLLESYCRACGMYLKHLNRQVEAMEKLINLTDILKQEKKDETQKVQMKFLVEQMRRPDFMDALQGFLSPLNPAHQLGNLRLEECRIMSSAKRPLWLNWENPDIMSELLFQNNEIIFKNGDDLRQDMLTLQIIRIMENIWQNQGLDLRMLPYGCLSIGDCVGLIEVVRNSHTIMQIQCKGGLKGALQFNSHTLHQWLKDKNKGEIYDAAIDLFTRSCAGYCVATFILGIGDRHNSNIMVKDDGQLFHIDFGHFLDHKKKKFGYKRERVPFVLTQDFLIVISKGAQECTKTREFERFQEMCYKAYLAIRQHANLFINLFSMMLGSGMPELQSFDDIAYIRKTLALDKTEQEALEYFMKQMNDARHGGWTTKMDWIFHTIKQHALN
UniProt P27986, whole entry partner: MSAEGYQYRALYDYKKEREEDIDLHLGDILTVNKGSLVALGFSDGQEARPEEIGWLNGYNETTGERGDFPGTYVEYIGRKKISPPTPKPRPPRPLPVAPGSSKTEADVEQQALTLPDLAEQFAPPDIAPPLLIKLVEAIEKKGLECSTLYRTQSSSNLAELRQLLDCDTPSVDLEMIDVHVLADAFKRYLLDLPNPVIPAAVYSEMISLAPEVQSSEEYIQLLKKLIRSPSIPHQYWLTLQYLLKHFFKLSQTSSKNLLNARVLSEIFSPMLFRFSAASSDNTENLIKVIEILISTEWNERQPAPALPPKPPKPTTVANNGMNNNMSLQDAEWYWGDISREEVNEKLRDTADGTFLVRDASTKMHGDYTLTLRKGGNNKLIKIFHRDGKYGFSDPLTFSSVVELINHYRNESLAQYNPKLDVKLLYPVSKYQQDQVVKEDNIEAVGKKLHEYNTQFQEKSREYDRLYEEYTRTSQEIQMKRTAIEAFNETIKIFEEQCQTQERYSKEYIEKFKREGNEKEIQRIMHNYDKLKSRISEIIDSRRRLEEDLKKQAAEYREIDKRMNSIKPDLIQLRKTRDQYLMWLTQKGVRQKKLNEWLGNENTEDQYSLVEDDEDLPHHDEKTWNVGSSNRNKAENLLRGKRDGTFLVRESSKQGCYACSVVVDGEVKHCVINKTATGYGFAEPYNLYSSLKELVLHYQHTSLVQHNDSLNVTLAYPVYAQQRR

Each structure is given as a SMILES string. pIC50: −log10 of the molar value. Structures were worked out from names or drawings and are uncertain.

The target in test [1] is H1047R PIK3CA enzyme (Homo sapiens, UniProt P42336, H1047R). The test can be described thus: ADP-Glo Biochemical PIK3CA Kinase Assay. The note with it: read-out: ADP-Glo IC50. In general terms: ADP-Glo turns the ADP formed in a reaction into a luminescent signal.
The test system of test [2] is PIK3CA-mediated AKT phosphorylation in MCF10A cells overexpressing hotspot PIK3CA mutations (including H1047R, E542K, and E545K mutations).

Consider `Cc1ccccc1Nc1ncc(NCc2cncnc2)cc1NC(=O)c1cc(F)cc(C(F)(F)F)c1` [I-638], for which the negative logarithm of the IC50 (pIC50) in test [1] was 5.00 to 6.00.
Turning to `CNC(=O)c1cnc(Nc2ccccc2C)c(NC(=O)c2noc3ccccc23)c1` [I-671], the pIC50 in test [1] was 5.00 to 6.00.
For the compound `CNC(=O)c1cnc(Nc2ccccc2C)c(NC(=O)c2cc(F)c(Cl)c(F)c2)c1`, the negative-log IC50 (pIC50) in test [2] is 5.30 to 6.00; in test [1] it was 6.30 to 7.00.
With `COC(=O)CCS(=O)(=O)c1cnc(Nc2ccccc2C)c(NC(=O)c2cc(F)cc(C(F)(F)F)c2)c1` [I-728], the pIC50 in test [1] is 5.00 to 6.00.
`Cc1ccccc1Nc1ncc(C(=O)NCc2cccnc2)cc1NC(=O)c1cc(F)cc(C(F)(F)F)c1` [I-700]: the pIC50 in test [2] is 5.30 to 6.00; in test [1] it was 6.30 to 7.00.
With `CNC(=O)c1cnc(Nc2ccccc2C)c(NC(=O)c2ccc(C#N)c(C(F)(F)F)c2)c1` [I-710], in test [1], the pIC50 was 5.00 to 6.00.
Turning to `Cc1ccccc1Nc1ncc(C(=O)NCc2ccc(Cl)cc2)cc1NC(=O)c1cc(F)cc(C(F)(F)F)c1` [I-702], the pIC50 is 5.30 to 6.00 in test [2] and 6.30 to 7.00 in test [1].
For `COc1cncc(CNC(=O)c2cnc(Nc3ccccc3C)c(NC(=O)c3cc(F)cc(C(F)(F)F)c3)c2)c1` [I-707], the negative logarithm of the IC50 (pIC50) in test [2] is 5.30 to 6.00.
With `Cc1ccccc1Nc1cccnc1NC(=O)c1csc2ccccc12` [I-635], the pIC50 in test [1] is 5.00 to 6.00.
As for `O=C(NC1CC(F)(F)C1)c1cnc(Nc2ccccc2Cl)c(NC(=O)c2csc3ccccc23)c1` [I-641], in test [1], the negative-log IC50 (pIC50) is 5.00 to 6.00.
In the case of `CNC(=O)c1cnc(Nc2cccc3ccn(C)c23)c(NC(=O)c2csc3ccccc23)c1` [I-680], the results for the pIC50 in test [2] and in test [1] were 4.44 to 5.00 and 5.00 to 6.00, respectively.
For the compound `Cc1ccccc1Nc1ncc(C(=O)NCC2(C#N)CC2)cc1NC(=O)c1cc(F)cc(C(F)(F)F)c1` [I-750], in test [1], the pIC50 was 6.00 to 6.30.
On to `Cc1ccccc1Nc1ncc(C(=O)NCc2nnc3ccccn23)cc1NC(=O)c1cc(F)cc(C(F)(F)F)c1` [I-759], for which the pIC50 in test [1] is 5.00 to 6.00.
For `Cc1cc(CNC(=O)c2cnc(Nc3ccccc3C)c(NC(=O)c3cc(F)cc(C(F)(F)F)c3)c2)no1`, the pIC50 in test [2] is 5.30 to 6.00; in test [1] it was 6.30 to 7.00.
For `CNC(=O)c1cnc(Nc2ccccc2C)c(NC(=O)c2ccc(F)c(F)c2)c1` [I-722], the pIC50 in test [1] was 5.00 to 6.00.
Still for that read-out and setting: the result for `Cc1ccccc1Nc1ncc(C(=O)NCc2ncccn2)cc1NC(=O)c1cc(F)cc(C(F)(F)F)c1` [I-719] reads 6.30 to 7.00.
Take `CNC(=O)c1cnc(Nc2cccc3c2CCC3)c(NC(=O)c2cc(F)cc(C(F)(F)F)c2)c1`: the pIC50 in test [2] was 5.00 to 5.30; in test [1], 6.30 to 7.00.
`CNC(=O)c1cnc(Nc2ccccc2C)c(NC(=O)c2cc(Cl)nc(C(F)(F)F)c2)c1` [I-762]: the pIC50 in test [1] was 6.00 to 6.30.
With `CNC(=O)c1cnc(Nc2ccccc2C)c(NC(=O)c2cc(F)c(OC)c(C(F)(F)F)c2)c1`, the pIC50 in test [2] was 4.44 to 5.00; in test [1], 5.00 to 6.00.
For `CSc1cnc(Nc2ccccc2C)c(NC(=O)c2cc(F)cc(C(F)(F)F)c2)c1`, the negative logarithm of the IC50 (pIC50) in test [1] was 5.00 to 6.00.
The same measure, in the same setting: the result for `CNC(=O)c1cnc(Nc2ccccc2C)c(NC(=O)c2cc(F)c(C(F)(F)F)c(F)c2)c1` [I-717] reads 5.00 to 6.00.
`Cc1ccccc1Nc1ncc(NCc2cncnc2)cc1NC(=O)c1cc(F)cc(C(F)(F)F)c1` [I-639]: the pIC50 in test [2] was 5.00 to 5.30; in test [1], greater than 7.00.
As for `CNC(=O)c1cnc(Nc2ccccc2C)c(NC(=O)c2ccc(C(F)(F)F)c(F)c2)c1`, the pIC50 in test [1] is 5.00 to 6.00.
As for `O=C(NC1CS(=O)(=O)C1)c1cnc(N2CCOCC2)c(NC(=O)c2csc3ccccc23)c1`, the negative-log IC50 (pIC50) in test [1] is 5.00 to 6.00.

The values above are taken from patent US20250090540A1, “PI3K-ALPHA INHIBITORS AND METHODS OF USE THEREOF” (Relay Therapeutics, Inc., priority 2021, published 2025).
